Results on one substance are retold here after article PMC9251544.

In this experiment the target is T1, 3×HA-xtMc1r (Xenopus tropicalis melanocortin 1 receptor) (Xenopus tropicalis).
T1 sequence: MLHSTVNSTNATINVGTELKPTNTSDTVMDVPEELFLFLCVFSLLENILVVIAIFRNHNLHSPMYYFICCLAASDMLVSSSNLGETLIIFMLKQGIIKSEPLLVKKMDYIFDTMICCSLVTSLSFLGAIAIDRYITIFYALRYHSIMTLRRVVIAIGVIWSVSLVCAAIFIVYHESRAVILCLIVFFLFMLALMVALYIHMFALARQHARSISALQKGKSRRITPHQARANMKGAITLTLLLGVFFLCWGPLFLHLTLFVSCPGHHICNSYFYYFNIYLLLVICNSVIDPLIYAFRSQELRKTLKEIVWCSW
The experiment is described as follows: co-IP; 3×HA-xtMc1r and v5-xtMraps-flag co-transfected in HEK293T; lysate incubated with anti-HA rabbit mAb overnight at 4°C, protein A+G agarose beads; blots with anti-HA and anti-FLAG.

These are yes or no findings as the source states them, for the method shown. Binding seen in cells or lysates may run through a third protein. A result given as binding can be weak or reduced; the word gives no strength. Where a sequence is shown, tags or fusion partners need not be part of it.

With “v5-xtMrap1-flag (Xenopus tropicalis melanocortin receptor accessory protein 1)”, the binding entry is recorded as “binds”.
